Patent US20100008928A1 (Takeda / Millennium, published 2010)
No constants are given. Whether binding was seen depends on the method and setting. Some results given as binding are weak or reduced against the parent protein; the word gives no strength.

Biological target: Nectin-2ED-hFc protein (human)
Test: ELISA, immobilized nectin-2-ED-Fc

binding: binds
B1: Nec1-554-1 SP3 (antibody, V domains shown)
VH: EVQLVESGGGLVKPGGSLRLSCAASGFTFSSYNMNWVRQAPGKGLEWVSSISSSSSYIYYADSVKGRFTISRDNAKNSLYLQMNSLRAEDTAVYYCARDYYGSGTYYLFDYWGQGTLVTVSS
VL: EIVLTQSPDFQSVTPKEKVTITCRASQSIGSSLHWYQQKPDQSPKLLIKYASQSFSGVPSRFSGSGSGTDFTLTINSLEAEDAAAYYCHQSRSLPITFGQGTRLEIK
notes: also called antibody fraction (SP3)
